Structures can show the parent of a compound that is named as a salt.

Among the data in patent US10130710B2 (priority 2014, dated 2018) are water-octanol partition coefficient values, retold here.

This data set is classed as physicochemical. An excerpt: Incidentally, the octanol-water partition coefficient herein is obtained by adding a target component to be measured into a flask charged with n-octanol and an aqueous buffer of pH 7 or water, shaking the resultant, and performing calculation, in accordance with the following equation, based on active ingredient concentrations in respective phases. Octanol-water partition coefficient=Log10(concentration in octanol phase/concentration in aqueous phase)

For `COc1cc2c(cc1OC)C(=O)C(CC1CCN(Cc3ccccc3)CC1)C2` (stereo not shown) [donepezil hydrochloride, reference compound], the water-octanol partition coefficient is 4.3.
